Results as given in publication PMC13043726, “SFPQ directs histone H3.3 deposition to R-loops in DNA repeats to protect genome stability”.
Results are given in words; binding and its absence hold for the method and conditions named. For some assays here: In cells and extracts the contact can be indirect. Some results given as binding are weak or reduced against the parent protein; the word gives no strength. For some assays here: Where a sequence is shown, tags or fusion partners need not be part of it. Values belong to the molecule of their own block, whether it stands above or below them.

Sequences of proteins named here, by UniProt entry; tags and fusion partners are left off.
UniProt Q9UER7: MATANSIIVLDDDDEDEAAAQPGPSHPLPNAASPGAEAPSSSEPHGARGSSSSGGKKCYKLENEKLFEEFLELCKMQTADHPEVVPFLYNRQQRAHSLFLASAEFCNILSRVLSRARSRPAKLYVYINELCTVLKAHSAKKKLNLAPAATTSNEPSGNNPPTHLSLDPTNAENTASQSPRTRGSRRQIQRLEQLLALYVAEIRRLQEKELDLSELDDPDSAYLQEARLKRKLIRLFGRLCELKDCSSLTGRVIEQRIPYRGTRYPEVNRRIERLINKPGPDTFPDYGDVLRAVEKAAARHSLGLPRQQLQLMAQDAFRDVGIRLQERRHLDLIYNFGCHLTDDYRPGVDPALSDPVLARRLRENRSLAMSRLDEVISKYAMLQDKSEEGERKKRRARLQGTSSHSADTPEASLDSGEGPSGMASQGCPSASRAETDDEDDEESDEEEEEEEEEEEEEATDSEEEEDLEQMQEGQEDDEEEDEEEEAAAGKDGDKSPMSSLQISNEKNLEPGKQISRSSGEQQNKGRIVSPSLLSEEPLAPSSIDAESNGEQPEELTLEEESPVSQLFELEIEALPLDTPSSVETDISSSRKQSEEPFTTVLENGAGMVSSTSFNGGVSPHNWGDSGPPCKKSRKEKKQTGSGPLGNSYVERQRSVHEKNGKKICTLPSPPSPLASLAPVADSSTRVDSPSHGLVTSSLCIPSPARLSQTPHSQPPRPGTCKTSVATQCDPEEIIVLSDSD

What was measured:
[1] = target: T1, myc-tagged human SFPQ, full length (human) (UniProt P23246); test: co-IP; myc-SFPQ and HA-DAXX overexpressed in H1299; reciprocal immunoprecipitation; IP buffer 50 mM Tris pH 8.0, 150 mM NaCl, 1% NP-40, 5 mM EDTA, 5% glycerol; western blot
T1 sequence: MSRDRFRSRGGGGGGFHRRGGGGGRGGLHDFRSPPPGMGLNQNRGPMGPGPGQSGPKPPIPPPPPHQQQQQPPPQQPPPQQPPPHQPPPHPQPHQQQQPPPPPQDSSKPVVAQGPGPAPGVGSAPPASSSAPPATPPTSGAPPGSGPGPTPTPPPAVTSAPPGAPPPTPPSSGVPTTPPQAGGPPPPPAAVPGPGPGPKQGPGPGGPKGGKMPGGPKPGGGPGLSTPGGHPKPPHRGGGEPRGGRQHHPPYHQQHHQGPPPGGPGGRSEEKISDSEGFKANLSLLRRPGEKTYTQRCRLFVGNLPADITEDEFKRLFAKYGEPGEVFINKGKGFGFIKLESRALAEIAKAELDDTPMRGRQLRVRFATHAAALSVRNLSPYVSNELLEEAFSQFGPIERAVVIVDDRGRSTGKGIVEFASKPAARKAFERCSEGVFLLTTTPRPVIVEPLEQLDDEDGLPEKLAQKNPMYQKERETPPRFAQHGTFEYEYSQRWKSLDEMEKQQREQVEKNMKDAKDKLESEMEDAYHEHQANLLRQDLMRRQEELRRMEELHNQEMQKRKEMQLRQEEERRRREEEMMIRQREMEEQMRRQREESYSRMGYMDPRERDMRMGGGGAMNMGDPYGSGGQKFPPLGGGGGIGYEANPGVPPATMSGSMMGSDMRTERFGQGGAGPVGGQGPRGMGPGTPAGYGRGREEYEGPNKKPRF

[2] = target: T2, endogenous SFPQ (human (endogenous in U-2 OS)) (UniProt P23246); test: co-IP; anti-SFPQ ChIP of formaldehyde-cross-linked, sonicated chromatin; cross-links reversed; western blot for DAXX; cell line not stated for this panel
T2 sequence: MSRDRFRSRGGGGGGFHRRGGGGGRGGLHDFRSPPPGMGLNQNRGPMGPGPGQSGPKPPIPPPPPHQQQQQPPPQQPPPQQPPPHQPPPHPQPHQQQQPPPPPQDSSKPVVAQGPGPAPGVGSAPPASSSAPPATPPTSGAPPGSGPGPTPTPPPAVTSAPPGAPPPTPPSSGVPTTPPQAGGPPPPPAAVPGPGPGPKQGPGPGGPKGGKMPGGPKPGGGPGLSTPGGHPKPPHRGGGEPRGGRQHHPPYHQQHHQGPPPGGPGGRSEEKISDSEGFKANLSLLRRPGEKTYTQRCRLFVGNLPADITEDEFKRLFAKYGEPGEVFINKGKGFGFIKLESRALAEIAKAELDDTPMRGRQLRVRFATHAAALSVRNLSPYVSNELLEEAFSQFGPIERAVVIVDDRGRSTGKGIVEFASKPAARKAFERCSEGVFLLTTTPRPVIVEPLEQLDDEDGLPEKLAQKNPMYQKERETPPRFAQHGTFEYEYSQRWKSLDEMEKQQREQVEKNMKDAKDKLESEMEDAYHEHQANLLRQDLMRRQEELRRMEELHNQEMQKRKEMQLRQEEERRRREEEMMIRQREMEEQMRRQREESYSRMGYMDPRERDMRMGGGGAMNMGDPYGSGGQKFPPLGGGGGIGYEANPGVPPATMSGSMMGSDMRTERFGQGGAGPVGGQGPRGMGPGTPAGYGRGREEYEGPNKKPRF

[3] = target: T2, endogenous SFPQ (human (endogenous in U-2 OS)); test: co-IP; endogenous proteins in U-2 OS, specific antibodies; IP buffer 50 mM Tris pH 8.0, 150 mM NaCl, 1% NP-40, 5 mM EDTA, 5% glycerol; western blot
[4] = target: T3, recombinant His6-myc-tagged full-length human SFPQ (human) (UniProt P23246); test: pull-down; 10 ug His6-myc-SFPQ held on c-myc magnetic beads, 5 ug GST-DAXX-HA added; SEC buffer (20 mM Tris-HCl pH 8.0, 300 mM NaCl, 0.5 mM TCEP, 10% glycerol), 4 °C, 2 h; western blot; both purified
T3 sequence: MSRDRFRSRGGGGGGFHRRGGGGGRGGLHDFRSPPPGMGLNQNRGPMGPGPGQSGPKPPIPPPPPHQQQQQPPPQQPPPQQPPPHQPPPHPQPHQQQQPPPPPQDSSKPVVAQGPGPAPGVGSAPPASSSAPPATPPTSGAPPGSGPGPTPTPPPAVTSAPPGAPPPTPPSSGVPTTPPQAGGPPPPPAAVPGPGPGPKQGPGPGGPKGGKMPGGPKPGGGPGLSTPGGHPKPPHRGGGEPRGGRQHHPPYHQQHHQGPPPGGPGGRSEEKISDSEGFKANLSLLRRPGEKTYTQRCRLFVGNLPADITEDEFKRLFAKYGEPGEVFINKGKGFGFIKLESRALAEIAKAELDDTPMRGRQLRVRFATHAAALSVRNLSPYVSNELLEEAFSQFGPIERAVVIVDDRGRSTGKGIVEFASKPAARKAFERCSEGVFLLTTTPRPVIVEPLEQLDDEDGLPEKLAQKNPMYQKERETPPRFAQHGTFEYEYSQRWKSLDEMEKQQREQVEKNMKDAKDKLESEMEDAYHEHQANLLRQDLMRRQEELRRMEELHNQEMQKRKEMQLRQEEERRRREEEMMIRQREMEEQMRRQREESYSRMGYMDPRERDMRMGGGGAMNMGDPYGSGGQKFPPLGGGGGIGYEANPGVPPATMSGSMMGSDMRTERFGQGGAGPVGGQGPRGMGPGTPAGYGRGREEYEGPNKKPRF

[5] = target: HA-tagged DAXX, full length (UniProt Q9UER7); test: co-IP; myc-tagged SFPQ versions and full-length HA-DAXX transiently expressed in U-2 OS; IP buffer 50 mM Tris pH 8.0, 150 mM NaCl, 1% NP-40, 5 mM EDTA, 5% glycerol; western blot

binding [4]: binds
Molecule: recombinant GST-tagged DAXX-HA (from UniProt Q9UER7 1-740)

binding [5]: binds
B1: SFPQ proline-rich P-domain fused to GFP and a nuclear localization signal, myc-tagged (domain or fragment, UniProt P23246 105-204)
chain: DSSKPVVAQGPGPAPGVGSAPPASSSAPPATPPTSGAPPGSGPGPTPTPPPAVTSAPPGAPPPTPPSSGVPTTPPQAGGPPPPPAAVPGPGPGPKQGPGP

The remaining lines, values behind:

Molecule: HA-tagged DAXX, full length (from UniProt Q9UER7 1-740)
binding [1]: binds

Molecule: endogenous Death Domain-Associated Protein (DAXX) (from UniProt Q9UER7 1-740)
binding [2]: binds | binding [3]: binds
